From US6031084A, “Azoamide compound” (Wako Pure Chemical Industries, Ltd., priority 1998, dated 2000)

Assay: Polymerization rate of acrylamide with the azo compound as polymerization initiator
Conditions: acrylamide in distilled water, 80° C., nitrogen
Method: Acrylamide(20 g) was dissolved in 380 g of distilled water and 14.0×10^5 mol of Present compound 1 obtained in Example 1 was added thereto as a polymerization initiator. The mixture was heated at 80° C. with stirring under nitrogen gas atmosphere to cause polymerization reaction. After the polymerization was started, samplings of the reaction solution were conducted at predetermined intervals, and methanol was added to the samples to form precipitates of the produced polymer, which were recovered and dried. The polymerization rates at each sampling time were measured.
The polymerization rates were measured by same measurement as Example 3 except for using Known compound 1, Known compound 2 or Known compound 3 in place of using Present compound 1.

| Compound | Polymerization rate at polymerization time 0.5 H | Polymerization rate at polymerization time 1.0 H | Polymerization rate at polymerization time 1.5 H | Polymerization rate at polymerization time 2.0 H | Polymerization rate at polymerization time 3.0 H | Polymerization rate at polymerization time 4.0 H |
| --- | --- | --- | --- | --- | --- | --- |
| CC(CO)(CO)NC(=O)C(C)(C)N=NC(C)(C)C(=O)NC(C)(CO)CO [Known compound 3, 2,2'-azobis {2-methyl-N-[1,1-bis(hydroxymethyl)ethyl]propionamide}] | 15.7% | 26.9% | 33.6% | 40.6% | 53.8% | 64.2% |
| CC(C)(N=NC(C)(C)C(=O)NCCO)C(=O)NCCO [Known compound 1, 2,2'-azobis[2-methyl-N-(2-hydroxyethyl)-propionamide]] | 26.9% | 45.9% | 56.0% | 67.6% | 76.2% | 82.1% |
| CC(C)(N=NC(C)(C)C(=O)NC(CO)(CO)CO)C(=O)NC(CO)(CO)CO [Known compound 2, 2,2'-azobis {2-methyl-N-[1,1-bis(hydroxymethyl)-2-hydroxyethyl]propionamide}] | 14.7% | 31.0% | 35.4% | 43.2% | 55.6% | 66.1% |
| CC[C@H](CO)NC(=O)C(C)(C)N=NC(C)(C)C(=O)N[C@H](CC)CO [Present compound 1, 2,2'-azobis[N-(butanol-2-yl)-2-methylpropionamide]] | 26.1% | 42.0% | 54.4% | 65.1% | 76.1% | 82.9% |
